Data from the supplement of paper PMC10849652.
The list shows a part of the results.

Chains of the proteins cited; added tags and fusions are not shown. Lines headed by an entry give the natural chain unless they say otherwise; changes in a name come on top.
UniProt Q8IX01: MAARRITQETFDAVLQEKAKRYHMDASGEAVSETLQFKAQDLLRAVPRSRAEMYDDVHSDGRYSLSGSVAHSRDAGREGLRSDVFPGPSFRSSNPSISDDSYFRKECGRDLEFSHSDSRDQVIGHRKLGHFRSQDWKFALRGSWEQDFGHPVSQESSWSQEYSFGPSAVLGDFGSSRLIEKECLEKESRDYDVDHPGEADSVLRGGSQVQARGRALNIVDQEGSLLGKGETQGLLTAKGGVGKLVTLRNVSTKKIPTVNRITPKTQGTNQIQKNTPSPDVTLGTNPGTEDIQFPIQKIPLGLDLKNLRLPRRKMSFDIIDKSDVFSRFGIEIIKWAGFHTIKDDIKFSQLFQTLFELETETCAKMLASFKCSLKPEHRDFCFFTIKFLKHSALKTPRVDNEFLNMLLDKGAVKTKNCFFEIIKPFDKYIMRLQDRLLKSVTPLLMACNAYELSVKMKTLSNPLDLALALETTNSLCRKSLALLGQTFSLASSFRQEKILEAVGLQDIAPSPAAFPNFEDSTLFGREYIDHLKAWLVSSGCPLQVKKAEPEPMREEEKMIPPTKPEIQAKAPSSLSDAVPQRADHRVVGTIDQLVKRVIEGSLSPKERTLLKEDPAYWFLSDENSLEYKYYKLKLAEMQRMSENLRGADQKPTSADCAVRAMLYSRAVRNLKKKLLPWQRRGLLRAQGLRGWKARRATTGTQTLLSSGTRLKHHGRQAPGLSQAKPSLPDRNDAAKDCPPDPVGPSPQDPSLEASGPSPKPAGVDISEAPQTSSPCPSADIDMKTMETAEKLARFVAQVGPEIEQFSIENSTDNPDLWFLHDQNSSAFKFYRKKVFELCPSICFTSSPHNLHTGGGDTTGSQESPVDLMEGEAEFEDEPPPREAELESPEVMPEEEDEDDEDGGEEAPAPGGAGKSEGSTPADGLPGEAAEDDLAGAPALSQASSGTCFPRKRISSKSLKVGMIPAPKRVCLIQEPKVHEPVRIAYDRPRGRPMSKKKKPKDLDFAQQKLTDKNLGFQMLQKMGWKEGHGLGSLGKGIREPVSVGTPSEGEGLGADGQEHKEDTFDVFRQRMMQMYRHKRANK
UniProt P49848, whole entry, looked up: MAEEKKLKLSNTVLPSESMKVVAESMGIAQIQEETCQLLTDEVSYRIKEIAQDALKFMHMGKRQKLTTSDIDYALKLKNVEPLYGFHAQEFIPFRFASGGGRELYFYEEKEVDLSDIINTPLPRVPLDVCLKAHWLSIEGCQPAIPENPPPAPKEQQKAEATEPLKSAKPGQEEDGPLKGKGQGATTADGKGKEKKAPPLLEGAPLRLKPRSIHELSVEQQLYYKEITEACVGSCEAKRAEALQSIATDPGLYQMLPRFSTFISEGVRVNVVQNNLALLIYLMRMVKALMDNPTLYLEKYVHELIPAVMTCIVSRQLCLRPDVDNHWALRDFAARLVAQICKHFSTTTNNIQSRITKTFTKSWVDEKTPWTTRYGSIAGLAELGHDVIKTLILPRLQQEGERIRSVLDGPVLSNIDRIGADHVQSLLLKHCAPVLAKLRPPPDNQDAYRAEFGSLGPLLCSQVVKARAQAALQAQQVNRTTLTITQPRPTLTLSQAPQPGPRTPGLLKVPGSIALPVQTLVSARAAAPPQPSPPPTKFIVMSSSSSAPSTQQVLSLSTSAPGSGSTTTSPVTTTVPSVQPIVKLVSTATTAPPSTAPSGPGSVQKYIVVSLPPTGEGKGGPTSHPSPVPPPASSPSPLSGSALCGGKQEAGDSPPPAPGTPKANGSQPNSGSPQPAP
UniProt P63165, whole entry, looked up: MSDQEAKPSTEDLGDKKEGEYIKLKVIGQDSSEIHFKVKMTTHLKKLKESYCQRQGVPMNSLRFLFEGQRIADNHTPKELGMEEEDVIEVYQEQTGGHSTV
UniProt Q9NRL3: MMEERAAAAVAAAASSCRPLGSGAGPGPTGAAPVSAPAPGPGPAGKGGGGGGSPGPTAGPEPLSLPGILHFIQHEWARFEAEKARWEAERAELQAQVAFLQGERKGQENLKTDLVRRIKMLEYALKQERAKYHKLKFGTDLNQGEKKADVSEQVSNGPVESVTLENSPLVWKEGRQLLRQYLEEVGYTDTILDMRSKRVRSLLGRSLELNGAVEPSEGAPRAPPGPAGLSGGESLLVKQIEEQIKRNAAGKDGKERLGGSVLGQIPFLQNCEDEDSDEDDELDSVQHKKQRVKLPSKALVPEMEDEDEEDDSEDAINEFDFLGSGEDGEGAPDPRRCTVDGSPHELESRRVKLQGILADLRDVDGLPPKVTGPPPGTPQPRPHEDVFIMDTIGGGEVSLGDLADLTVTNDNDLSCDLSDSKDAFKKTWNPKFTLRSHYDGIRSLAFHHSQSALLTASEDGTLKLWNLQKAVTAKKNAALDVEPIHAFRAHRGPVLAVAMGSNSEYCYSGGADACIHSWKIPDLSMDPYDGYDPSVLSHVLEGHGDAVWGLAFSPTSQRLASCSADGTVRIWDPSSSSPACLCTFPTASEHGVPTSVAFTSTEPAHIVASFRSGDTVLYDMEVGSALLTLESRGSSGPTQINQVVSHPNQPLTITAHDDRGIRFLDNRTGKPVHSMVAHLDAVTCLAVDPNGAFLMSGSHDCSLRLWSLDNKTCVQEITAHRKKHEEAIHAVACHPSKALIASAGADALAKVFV
UniProt Q6ZWJ1: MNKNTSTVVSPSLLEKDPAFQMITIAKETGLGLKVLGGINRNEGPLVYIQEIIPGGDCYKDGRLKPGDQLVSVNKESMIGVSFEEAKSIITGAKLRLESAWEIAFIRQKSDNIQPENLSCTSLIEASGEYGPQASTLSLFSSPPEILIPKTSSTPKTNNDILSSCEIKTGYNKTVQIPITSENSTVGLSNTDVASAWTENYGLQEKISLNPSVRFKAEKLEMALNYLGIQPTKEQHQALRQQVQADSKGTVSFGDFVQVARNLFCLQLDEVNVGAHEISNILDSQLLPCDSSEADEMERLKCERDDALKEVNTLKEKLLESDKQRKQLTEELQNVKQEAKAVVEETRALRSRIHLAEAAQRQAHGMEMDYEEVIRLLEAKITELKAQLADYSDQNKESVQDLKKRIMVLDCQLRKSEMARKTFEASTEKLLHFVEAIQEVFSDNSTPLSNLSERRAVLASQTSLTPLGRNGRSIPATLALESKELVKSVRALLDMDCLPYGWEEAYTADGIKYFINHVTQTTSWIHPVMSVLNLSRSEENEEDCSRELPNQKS
UniProt Q5T5C0: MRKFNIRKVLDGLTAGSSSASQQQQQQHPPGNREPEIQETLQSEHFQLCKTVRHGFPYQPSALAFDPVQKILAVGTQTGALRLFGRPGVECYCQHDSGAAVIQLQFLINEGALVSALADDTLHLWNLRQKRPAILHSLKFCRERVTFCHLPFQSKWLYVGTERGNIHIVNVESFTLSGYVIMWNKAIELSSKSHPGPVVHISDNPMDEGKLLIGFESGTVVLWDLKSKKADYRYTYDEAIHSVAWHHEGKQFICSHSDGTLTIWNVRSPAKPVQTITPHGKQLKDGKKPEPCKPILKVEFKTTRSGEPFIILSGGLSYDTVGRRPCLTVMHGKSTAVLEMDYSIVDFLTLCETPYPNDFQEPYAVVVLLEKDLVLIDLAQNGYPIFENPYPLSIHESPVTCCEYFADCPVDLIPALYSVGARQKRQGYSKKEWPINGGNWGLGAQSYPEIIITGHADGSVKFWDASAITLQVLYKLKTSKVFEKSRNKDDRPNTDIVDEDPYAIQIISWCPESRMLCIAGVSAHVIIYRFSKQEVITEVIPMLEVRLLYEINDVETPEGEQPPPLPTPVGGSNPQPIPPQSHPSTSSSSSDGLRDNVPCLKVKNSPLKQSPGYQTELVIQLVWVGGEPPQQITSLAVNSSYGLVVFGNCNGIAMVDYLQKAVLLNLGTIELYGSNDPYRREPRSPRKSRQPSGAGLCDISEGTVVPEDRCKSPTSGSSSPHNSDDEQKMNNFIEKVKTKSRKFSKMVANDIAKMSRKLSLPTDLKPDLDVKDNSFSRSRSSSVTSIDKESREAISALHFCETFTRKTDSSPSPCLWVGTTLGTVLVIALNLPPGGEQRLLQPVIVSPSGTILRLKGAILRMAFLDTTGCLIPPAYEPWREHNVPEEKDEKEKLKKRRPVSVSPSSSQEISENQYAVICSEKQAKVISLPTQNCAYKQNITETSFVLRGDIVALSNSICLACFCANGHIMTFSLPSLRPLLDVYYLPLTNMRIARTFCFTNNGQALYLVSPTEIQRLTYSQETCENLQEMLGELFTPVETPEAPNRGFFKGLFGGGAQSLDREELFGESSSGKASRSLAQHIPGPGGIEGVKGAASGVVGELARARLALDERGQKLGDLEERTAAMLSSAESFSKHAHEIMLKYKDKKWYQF
UniProt Q13190: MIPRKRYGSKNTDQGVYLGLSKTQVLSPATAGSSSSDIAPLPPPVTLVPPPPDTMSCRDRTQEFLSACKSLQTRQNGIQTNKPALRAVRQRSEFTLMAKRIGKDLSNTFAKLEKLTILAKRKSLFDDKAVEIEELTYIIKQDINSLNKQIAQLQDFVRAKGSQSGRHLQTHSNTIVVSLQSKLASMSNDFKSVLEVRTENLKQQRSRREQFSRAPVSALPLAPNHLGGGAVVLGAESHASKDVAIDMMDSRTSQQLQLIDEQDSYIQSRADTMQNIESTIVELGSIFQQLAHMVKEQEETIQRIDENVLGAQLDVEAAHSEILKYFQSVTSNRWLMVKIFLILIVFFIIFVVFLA
UniProt Q1ZZU3: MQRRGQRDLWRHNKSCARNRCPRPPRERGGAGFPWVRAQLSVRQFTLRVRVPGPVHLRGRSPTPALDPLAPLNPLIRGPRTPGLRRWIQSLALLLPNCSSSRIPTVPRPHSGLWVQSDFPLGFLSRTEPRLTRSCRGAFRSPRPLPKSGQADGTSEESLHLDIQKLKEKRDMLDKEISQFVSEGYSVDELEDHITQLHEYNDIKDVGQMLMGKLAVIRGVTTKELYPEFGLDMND
UniProt Q9Y2Z0: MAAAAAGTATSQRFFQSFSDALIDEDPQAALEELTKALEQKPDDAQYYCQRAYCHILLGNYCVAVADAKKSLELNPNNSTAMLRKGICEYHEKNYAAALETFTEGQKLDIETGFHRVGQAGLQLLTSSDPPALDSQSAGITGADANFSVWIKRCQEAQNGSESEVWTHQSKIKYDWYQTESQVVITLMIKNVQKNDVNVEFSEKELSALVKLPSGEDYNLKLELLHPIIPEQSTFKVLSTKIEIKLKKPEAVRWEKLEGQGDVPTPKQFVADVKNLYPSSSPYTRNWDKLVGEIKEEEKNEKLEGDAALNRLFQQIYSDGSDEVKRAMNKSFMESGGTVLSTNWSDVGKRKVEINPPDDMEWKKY
UniProt Q96BN2: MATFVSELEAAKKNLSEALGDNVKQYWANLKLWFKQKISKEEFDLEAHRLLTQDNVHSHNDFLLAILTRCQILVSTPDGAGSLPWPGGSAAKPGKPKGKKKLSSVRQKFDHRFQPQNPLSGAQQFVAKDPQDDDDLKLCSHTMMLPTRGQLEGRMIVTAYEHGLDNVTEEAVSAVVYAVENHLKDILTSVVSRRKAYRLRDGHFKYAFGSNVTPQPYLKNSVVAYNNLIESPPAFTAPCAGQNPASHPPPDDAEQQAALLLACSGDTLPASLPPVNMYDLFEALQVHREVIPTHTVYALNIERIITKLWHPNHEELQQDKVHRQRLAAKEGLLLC
UniProt Q9ULQ0: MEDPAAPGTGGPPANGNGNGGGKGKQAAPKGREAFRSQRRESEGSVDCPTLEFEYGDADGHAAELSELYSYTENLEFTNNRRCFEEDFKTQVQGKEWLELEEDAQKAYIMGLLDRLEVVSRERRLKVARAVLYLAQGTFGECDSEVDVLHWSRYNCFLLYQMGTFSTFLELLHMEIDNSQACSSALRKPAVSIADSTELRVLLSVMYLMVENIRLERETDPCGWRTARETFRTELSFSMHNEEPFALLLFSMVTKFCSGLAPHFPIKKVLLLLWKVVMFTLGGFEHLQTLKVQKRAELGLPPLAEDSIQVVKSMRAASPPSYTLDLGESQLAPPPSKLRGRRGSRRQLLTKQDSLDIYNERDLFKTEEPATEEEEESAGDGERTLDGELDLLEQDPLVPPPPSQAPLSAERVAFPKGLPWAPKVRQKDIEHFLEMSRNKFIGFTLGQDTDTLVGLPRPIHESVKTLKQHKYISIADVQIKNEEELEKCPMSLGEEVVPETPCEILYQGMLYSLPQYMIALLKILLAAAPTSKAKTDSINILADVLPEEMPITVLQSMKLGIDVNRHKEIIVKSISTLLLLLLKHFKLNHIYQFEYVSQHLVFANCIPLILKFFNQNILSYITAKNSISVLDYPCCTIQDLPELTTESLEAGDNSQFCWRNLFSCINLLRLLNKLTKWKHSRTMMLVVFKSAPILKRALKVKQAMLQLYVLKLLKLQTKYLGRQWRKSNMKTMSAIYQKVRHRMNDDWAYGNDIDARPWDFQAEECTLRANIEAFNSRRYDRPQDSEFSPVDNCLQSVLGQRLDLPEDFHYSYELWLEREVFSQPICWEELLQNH

Key:
Experiment in all cases: log2 fold change, soluble protein after heating vs DMSO (PISA); higher = thermal stabilisation; K562 lysate, 10 uM; active = over 0.2 and 3.5 SD of the protein, either way, in both replicates (recomputed)
alvocidib = compound: CN1CC[C@H](c2c(O)cc(O)c3c(=O)cc(-c4ccccc4Cl)oc23)[C@H](O)C1 [alvocidib]
Method in brief: (§1)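 K562 pellets were dounce-homogenised in PBS pH 7.4 with 1 mM MgCl2, and the crude extract at 1 mg/mL protein was treated with 10 μM compound for 30 min. Aliquots were heated for 3 min across 48°C-58°C, pooled, and brought to 0.5% NP-40 at 4°C; soluble protein was the supernatant after 21,000xg for 90 min. Soluble protein was quantified by TMTpro 16plex LC-MS/MS with channel sums equalised, and reported as log2 fold change in thermal stability against DMSO controls, with values from duplicates.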

Tubastatin A = compound: CN1CCc2c(c3ccccc3n2Cc2ccc(C(=O)NO)cc2)C1 [Tubastatin A]
Method in brief: as §1

[1] = compound: CNC(=O)C1=CC=CC=C1NC2=NC(=NC=C2Cl)NC3=C(C=C(C=C3)N4CCOCC4)OC
Method in brief: as §1

defactinib = compound: CNC(=O)c1ccc(Nc2ncc(C(F)(F)F)c(NCc3nccnc3N(C)S(C)(=O)=O)n2)cc1 [defactinib]
Method in brief: as §1

[2] = compound: CNc1nc(-c2ccc3c(N)n[nH]c3c2)cc(N2C[C@@H](C(=O)NC3CCCCC3)CC[C@H]2C)n1
Method in brief: as §1

encorafenib = compound: COC(=O)N[C@@H](C)CNc1nccc(-c2cn(C(C)C)nc2-c2cc(Cl)cc(NS(C)(=O)=O)c2F)n1 [encorafenib]
Method in brief: as §1

[3] = compound: COC(=O)[C@H](CCSC)NC(=O)C1=C(C=C(C=C1)NC[C@H](CS)N)C2=CC=CC=C2
Method in brief: as §1

alisertib = compound: COc1cc(Nc2ncc3c(n2)-c2ccc(Cl)cc2C(c2c(F)cccc2OC)=NC3)ccc1C(=O)O [alisertib]
Method in brief: as §1

[4] = compound: COc1cc2nc(-c3cc(F)ccc3O)nc(N[C@@H]3CNC[C@H]3C(C)(C)O)c2cc1OC
Method in brief: as §1

gefitinib = compound: COc1cc2ncnc(Nc3ccc(F)c(Cl)c3)c2cc1OCCCN1CCOCC1 [gefitinib]
Method in brief: as §1

Measured: log2 fold change

SUGP1 (UniProt Q8IWZ8)
inactive: alvocidib -0.019 | Tubastatin A -0.007 | [1] -0.013 | defactinib 0.039 | [2] -0.008 | encorafenib 0.009 | [3] -0.002 | alisertib -0.043 | [4] 0.02 | gefitinib 0.005

STRADA (UniProt Q7RTN6)
inactive: alvocidib -0.026 | Tubastatin A -0.029 | [1] -0.056 | defactinib -0.005 | [2] -0.007 | encorafenib 0.01 | [3] -0.054 | alisertib -0.019 | [4] -0.023 | gefitinib 0.04

SYTL4 (UniProt Q96C24)
inactive: alvocidib 0.044 | Tubastatin A -0.023 | [1] 0.024 | defactinib 0.03 | [2] 0.018 | encorafenib 0 | [3] 0.017 | alisertib -0.071 | [4] 0.17 | gefitinib -0.009

SUGP2 (UniProt Q8IX01)
inactive: alvocidib 0.025 | Tubastatin A -0.221 | [1] 0.008 | defactinib -0.104 | [2] 0.041 | encorafenib -0.061 | [3] 0.07 | alisertib 0.004 | [4] 0.034 | gefitinib -0.016

SYF2 (UniProt O95926)
inactive: alvocidib 0.004 | Tubastatin A 0.039 | [1] 0.103 | defactinib -0.034 | [2] 0.049 | encorafenib 0.038 | [3] 0.033 | alisertib 0.018 | [4] 0.058 | gefitinib 0.038

STMN2 isoform 2 (UniProt Q93045)
inactive: alvocidib 0.091 | Tubastatin A 0.103 | [1] -0.046 | defactinib -0.074 | [2] 0.047 | encorafenib -0.038 | [3] -0.007 | alisertib -0.002 | [4] -0.014 | gefitinib -0.103

TAF6 isoform 3 (UniProt P49848)
inactive: alvocidib 0.076 | Tubastatin A -0.098 | [1] -0.038 | defactinib 0.128 | [2] -0.04 | encorafenib 0.023 | [3] 0.064 | alisertib -0.025 | [4] 0.019 | gefitinib -0.012

SUMO1 (UniProt P63165)
inactive: alvocidib 0.043 | Tubastatin A -0.014 | [1] -0.032 | defactinib -0.001 | [2] -0.124 | encorafenib 0.057 | [3] -0.051 | alisertib 0.018 | [4] -0.024 | gefitinib -0.089

SYNE2 isoform 2 (UniProt Q8WXH0)
inactive: alvocidib -0.415 | Tubastatin A 0.143 | [1] -0.117 | defactinib -0.139 | [2] -0.003 | encorafenib -0.036 | [3] 0.004 | alisertib 0.037 | [4] 0.034 | gefitinib -0.059

STON2 isoform 3 (UniProt Q8WXE9)
inactive: alvocidib 0.013 | Tubastatin A -0.058 | [1] -0.078 | defactinib -0.006 | [2] -0.037 | encorafenib 0.079 | [3] 0.14 | alisertib 0.044 | [4] -0.037 | gefitinib 0.036

STT3A (UniProt P46977)
inactive: alvocidib -0.006 | Tubastatin A -0.041 | [1] -0.007 | defactinib 0.009 | [2] -0.116 | encorafenib 0.053 | [3] -0.042 | alisertib 0.046 | [4] -0.07 | gefitinib 0.034

STXBP3 (UniProt O00186)
inactive: alvocidib -0.024 | Tubastatin A -0.07 | [1] 0.027 | defactinib 0.018 | [2] 0.029 | encorafenib -0.008 | [3] 0.005 | alisertib -0.029 | [4] 0.011 | gefitinib -0.023

TAF2 (UniProt Q6P1X5)
inactive: alvocidib 0.032 | Tubastatin A -0.085 | [1] 0.03 | defactinib 0.006 | [2] -0.098 | encorafenib -0.002 | [3] -0.011 | alisertib 0.041 | [4] -0.008 | gefitinib 0.05

STOML2 (UniProt Q9UJZ1)
inactive: alvocidib -0.017 | Tubastatin A 0.095 | [1] -0.009 | defactinib 0.017 | [2] 0.022 | encorafenib -0.007 | [3] -0.055 | alisertib -0.004 | [4] 0.052 | gefitinib 0.08

STRN4 isoform 3 (UniProt Q9NRL3)
inactive: alvocidib -0.022 | Tubastatin A -0.029 | [1] 0.037 | defactinib 0.011 | [2] -0.031 | encorafenib 0.036 | [3] 0.063 | alisertib 0.03 | [4] -0.067 | gefitinib -0.034

SYNRG (UniProt Q9UMZ2)
inactive: alvocidib 0.026 | Tubastatin A -0.016 | [1] -0.021 | defactinib 0.015 | [2] 0.002 | encorafenib -0.004 | [3] 0.024 | alisertib 0.033 | [4] 0.003 | gefitinib -0.006

STXBP4 (UniProt Q6ZWJ1)
inactive: alvocidib 0.05 | Tubastatin A -0.079 | [1] 0.044 | defactinib 0.086 | [2] 0.021 | encorafenib 0.067 | [3] -0.019 | alisertib -0.011 | [4] 0.019 | gefitinib 0.013

STXBP5 (UniProt Q5T5C0)
inactive: alvocidib -0.003 | Tubastatin A 0.037 | [1] 0.053 | defactinib -0.011 | [2] 0.057 | encorafenib 0.005 | [3] 0.019 | alisertib -0.029 | [4] 0.02 | gefitinib -0.037

STK25 (UniProt O00506)
inactive: alvocidib -0.016 | Tubastatin A -0.093 | [1] 0.023 | defactinib 0.147 | [2] -0.023 | encorafenib 0.025 | [3] -0.04 | alisertib -0.007 | [4] 0.036 | gefitinib -0.065

STX5 (UniProt Q13190)
inactive: alvocidib 0.009 | Tubastatin A -0.056 | [1] -0.001 | defactinib 0.069 | [2] -0.047 | encorafenib -0.017 | [3] 0.028 | alisertib 0.008 | [4] 0.093 | gefitinib -0.056

STX10 (UniProt O60499)
inactive: alvocidib 0.114 | Tubastatin A 0.037 | [1] -0.01 | defactinib -0.032 | [2] 0.031 | encorafenib 0.043 | [3] -0.076 | alisertib 0.044 | [4] 0.068 | gefitinib -0.001

STK11 (UniProt Q15831)
inactive: alvocidib -0.017 | Tubastatin A -0.001 | [1] -0.034 | defactinib 0.041 | [2] -0.048 | encorafenib 0.024 | [3] -0.001 | alisertib -0.018 | [4] 0 | gefitinib 0.009

SWI5 (UniProt Q1ZZU3)
inactive: alvocidib 0.032 | Tubastatin A 0.008 | [1] 0.012 | defactinib -0.065 | [2] 0.032 | encorafenib 0.044 | [3] -0.02 | alisertib 0.049 | [4] -0.01 | gefitinib 0.056

Two neighbouring entries out of the list so far, for reference:
STK11 (UniProt Q15831)
inactive: alvocidib -0.017 | Tubastatin A -0.001 | [1] -0.034 | defactinib 0.041 | [2] -0.048 | encorafenib 0.024 | [3] -0.001 | alisertib -0.018 | [4] 0 | gefitinib 0.009

SWI5 (UniProt Q1ZZU3)
inactive: alvocidib 0.032 | Tubastatin A 0.008 | [1] 0.012 | defactinib -0.065 | [2] 0.032 | encorafenib 0.044 | [3] -0.02 | alisertib 0.049 | [4] -0.01 | gefitinib 0.056

(list continues)

SUPT16H (UniProt Q9Y5B9)
inactive: alvocidib 0.006 | Tubastatin A -0.034 | [1] 0.011 | defactinib 0.022 | [2] -0.041 | encorafenib 0.008 | [3] 0.035 | alisertib -0.024 | [4] 0 | gefitinib -0.021

SUGT1 (UniProt Q9Y2Z0)
inactive: alvocidib 0.018 | Tubastatin A 0.026 | [1] -0.009 | defactinib -0.021 | [2] 0.026 | encorafenib -0.012 | [3] -0.05 | alisertib -0.03 | [4] -0.005 | gefitinib -0.018

TADA1 (UniProt Q96BN2)
inactive: alvocidib -0.02 | Tubastatin A -0.106 | [1] 0.005 | defactinib -0.021 | [2] 0.062 | encorafenib 0.044 | [3] 0.002 | alisertib 0.018 | [4] 0.106 | gefitinib -0.009

STRAP isoform 2 (UniProt Q9Y3F4)
inactive: alvocidib 0.018 | Tubastatin A 0.014 | [1] -0.01 | defactinib -0.008 | [2] 0.011 | encorafenib -0.004 | [3] 0.041 | alisertib 0.014 | [4] 0 | gefitinib -0.028

STRIP2 (UniProt Q9ULQ0)
inactive: alvocidib 0.001 | Tubastatin A -0.021 | [1] -0.004 | defactinib -0.009 | [2] -0.025 | encorafenib -0.026 | [3] 0.075 | alisertib 0.019 | [4] -0.023 | gefitinib -0.028

STX16 isoform 2 (UniProt O14662)
inactive: alvocidib -0.034 | Tubastatin A 0.081 | [1] -0.035 | defactinib 0.101 | [2] 0.034 | encorafenib -0.015 | [3] -0.107 | alisertib 0.063 | [4] 0.003 | gefitinib -0.088

STX12 (UniProt Q86Y82)
inactive: alvocidib -0.03 | Tubastatin A 0.052 | [1] -0.034 | defactinib -0.001 | [2] 0.024 | encorafenib 0.002 | [3] -0.002 | alisertib 0.002 | [4] 0.033 | gefitinib -0.008
